From publication PMC7275063
Results are given in words; binding and its absence hold for the method and conditions named. In cells and extracts the contact can be indirect. Tags and fused reporters may be left off the sequences shown.

The chains behind the UniProt entries cited, without tags or fusion partners.
UniProt Q6PHN9: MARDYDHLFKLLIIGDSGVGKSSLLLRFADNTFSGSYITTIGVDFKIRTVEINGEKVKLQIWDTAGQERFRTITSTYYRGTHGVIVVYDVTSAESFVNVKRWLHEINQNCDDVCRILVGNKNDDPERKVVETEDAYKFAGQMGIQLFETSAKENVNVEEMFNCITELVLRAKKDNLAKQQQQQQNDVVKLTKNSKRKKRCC

Legend:
GST-Rab35 (mouse) [1] = target: GST-Rab35 (mouse) (UniProt Q6PHN9); experiment: pull-down; immobilised active GST-Rab35•GTP; lysates of HEK293T cells co-expressing eGFP-MTM1, -MTMR1 or -MTMR2 with FLAG-MTMR13; immunoblot; only the target purified
GST-Rab35 (mouse) [2] = target: GST-Rab35 (mouse) (UniProt Q6PHN9); experiment: pull-down; 100 µg GST-Rab fusion on GST-bind beads loaded with 1 mM GTPγS; lysates of HEK293T cells overexpressing one tagged MTMR on its own; 2 h at 4 °C; immunoblot for eGFP or FLAG; only the target purified
GST-Rab35 (mouse) [3] = target: GST-Rab35 (mouse) (UniProt Q6PHN9); experiment: pull-down; GST-Rab35•GTP; MTM1, MTMR1 or MTMR2 co-expressed with MTMR5 (Supplementary Fig. 1d-f); only the target purified

Measured: binding

B1: eGFP-MTM1 (protein, UniProt Q13496 1-603)
chain: MASASTSKYNSHSLENESIKRTSRDGVNRDLTEAVPRLPGETLITDKEVIYICPFNGPIKGRVYITNYRLYLRSLETDSSLILDVPLGVISRIEKMGGATSRGENSYGLDITCKDMRNLRFALKQEGHSRRDMFEILTRYAFPLAHSLPLFAFLNEEKFNVDGWTVYNPVEEYRRQGLPNHHWRITFINKCYELCDTYPALLVVPYRASDDDLRRVATFRSRNRIPVLSWIHPENKTVIVRCSQPLVGMSGKRNKDDEKYLDVIRETNKQISKLTIYDARPSVNAVANKATGGGYESDDAYHNAELFFLDIHNIHVMRESLKKVKDIVYPNVEESHWLSSLESTHWLEHIKLVLTGAIQVADKVSSGKSSVLVHCSDGWDRTAQLTSLAMLMLDSFYRSIEGFEILVQKEWISFGHKFASRIGHGDKNHTDADRSPIFLQFIDCVWQMSKQFPTAFEFNEQFLIIILDHLYSCRFGTFLFNCESARERQKVTERTVSLWSLINSNKEKFKNPFYTKEINRVLYPVASMRHLELWVNYYIRWNPRIKQQQPNPVEQRYMELLALRDEYIKRLEELQLANSAKLSDPPTSPSSPSQMMPHVQTHF
no binding: all assays above
